Data published in PubChem BioAssay AID743402 (Broad Institute, 2014).
Hit rate of the full screen: of about 1,200 compounds, about 140 (12%) were called active.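 Rule for the calls: active = fitted curve falls past -35% activity change at a dose under twice the top valid dose, in every replicate test; inconclusive = replicate tests disagree on the call; inactive = the rest, including activity in the opposite direction.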 The list lacks most of the strong results.

test: CFTR-F508del correctors, dose response, FRT cells, YFP quenching, cherry-pick (AID 743402); details: FRT CFTR-F508del YFP iodide quenching, 24 h, channel opened with forskolin and a potentiator; at 26 µM (top of the series) unless noted;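 note: compounds act as correctors raising surface CFTR-F508del before acute activation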

Activity change, negative = more quenching (active), inactive:
CCOc1cc(OCC)c(C(C)=O)cc1OCC 14.3%
COc1ccc(NC(=O)C2CCCN2C(=O)Nc2cccc(F)c2)cc1 (centres undefined) 9.58%
COCCNC(=O)c1cc(-c2ccc(-c3ccccc3)cc2)nc2ccccc12 6.7%
Cc1cccc(OCCNC(=O)c2ccc(Cl)c(S(=O)(=O)NCc3cccnc3)c2)c1 6.25%
C[C@H]1CN([C@@H](C)CO)C(=O)Cc2cc(NC(=O)Nc3ccc(C(F)(F)F)cc3)ccc2O[C@H]1CN(C)S(=O)(=O)c1ccccc1 7.14%
COc1ccc(-c2ccnc(-c3ccc(O)cc3)n2)cc1 -26.7%
COc1ccc(NC(=O)c2nc(C)c(C3(C)CC(c4cccnc4)=NO3)s2)cc1 (centres undefined) -3.33%
COc1ccc(C(=O)OCc2nc(N)nc(Nc3ccccc3C)n2)cc1OC -3.33%
CN(CC(=O)NCCc1ccc(S(N)(=O)=O)cc1)CC(=O)Nc1ccc(Cl)c(C(F)(F)F)c1 1.61%
CC1Cc2nc(SCC(=O)N3CCOCC3)n(-c3ccccc3)c(=O)c2S1 (centres undefined) 3.12%
O=C1NN(c2cccc(Br)c2)C(=O)/C1=C\c1ccc(O)cc1 12.7%
Cc1cccc(N2CCN(S(=O)(=O)c3cc(-c4cc(C)no4)ccc3C)CC2C)c1 (centres undefined) -1.61%
COc1cc(C2CC(=O)N(c3ccc(C)cc3)C(=O)C2)cc(OC)c1OC 0%
COc1ccc2c3c([nH]c2c1)[C@H](CO)N(C(=O)Nc1ccc(F)cc1)CC31CCN(S(=O)(=O)c2ccccc2)CC1 5.05%
Cc1ccc(NC(=O)c2c(C)noc2C)cc1S(=O)(=O)N1CCOCC1 10%
O=C(Nc1ccc(OC(F)(F)F)cc1)c1ccc2c(c1)no[n+]2[O-] 22.7%
CC(C)CCNC(=O)C(=O)Nc1ccc2c(c1)N(S(=O)(=O)c1cccs1)CCC2 14.7%
C=CC(C)(C)c1[nH]cnc1/C=C1\NC(=O)C(C(C)C)NC1=O (centres undefined) 13.3%
C/C(=N\NC(=O)c1cc(-c2cccs2)nc2ccccc12)c1ccccn1 16%
O=c1[nH]c(CN2CCN(c3ccc(O)cc3)CC2)nc2scc(-c3ccc(Cl)cc3)c12 19.6%
O=S1(=O)c2ccc(Br)cc2N2CCC[C@H]2CN1Cc1ccccc1 -23.3%
COC(=O)c1ccc(/C=C/c2c(-c3ccc(OC)cc3)oc3ccc(N4CCOCC4)cc23)cc1 -18.8%
CC(=O)Nc1ccc(NC(=O)COc2cccc3c2OC(C)(C)C3)cc1 3.12%
CCCC(=O)Nc1nc2ccc(NC(=O)c3c(F)c(F)c(OC)c(F)c3F)cc2s1 3.12%
OC[C@@H]1[C@@H](c2ccc(C#CC3(O)CCCC3)cc2)[C@H]2CN(Cc3ccccc3F)CCCCN12 0%
CC(C)(C)c1ccccc1NC(=O)CN1C(=O)NC2(CCCCCC2)C1=O 1.61%
CC(C)CC#Cc1ccc([C@H]2[C@H](CO)N3C(=O)CN(C(=O)Nc4cc(F)ccc4F)C[C@@H]23)cc1 3.12%
CCOC1=C2[C@@H](CN(S(=O)(=O)c3ccc(C)cc3)[C@H]2c2ccc(Cl)cc2)[C@H]2C(=O)N(c3ccccc3)C(=O)[C@H]2C1 20%
Cc1cc(Cl)cc(C)c1OCCn1ccnc1 6.46%
CC(C)C#Cc1ccc([C@@H]2[C@@H](CO)N3C(=O)CN(S(=O)(=O)c4ccccc4)C[C@@H]23)cc1 15.8%
Oc1ccc2ccccc2c1/C=C/c1ccc2c(Br)cc(Br)c(O)c2n1 23.3%
Cc1cc(-c2ccccc2)nc(N(C)NC(=O)C2CC2)c1S(C)(=O)=O -3.33%
O=C1NC(=Nc2ccc(O)cc2)S/C1=C/c1ccco1 -4.74%
COc1ccc(OC)c(Nc2cc(C)nc3ccc(C)cc23)c1 -17.9%
COCCCN=C1NN=C(c2cc(C)n(Cc3ccco3)c2C)CS1 7.42%
Cc1ccc(S(=O)(=O)N2CCOCC2)cc1NC(=O)CSc1n[nH]c(N)n1 -3.12%
Cc1cccc(S(=O)(=O)N2C[C@H]3[C@@H](c4ccccc42)[C@H](CO)N3CC2CCCC2)c1 6.46%
CCN(CC)CCn1nc2c3c(cccc3c1=O)-c1ccccc1-2 -16.2%
C[C@@H]1CN([C@@H](C)CO)C(=O)c2cc(NC(=O)Nc3cccc4ccccc34)ccc2O[C@@H](C)CCCCO[C@@H]1CN(C)Cc1ccc2c(c1)OCO2 3.57%
CCCCC(=NCCc1c(C)[nH]c2ccc(OC)cc12)C1=C(O)CC(c2ccccc2)CC1=O (centres undefined) -17.9%
COc1ccc(/C=C2/CCCc3ccccc3C2=O)cc1 -23.3%
Cn1cccc1/C=C1\SC(=Nc2ccccc2)NC1=O -16.7%
COc1cc(C#Cc2ccc3cc(CCCO)oc(=O)c3c2)cc(OC)c1 -20%
Cc1nn(C2CCS(=O)(=O)C2)c2nc(C3CC3)cc(C(=O)Nc3cccc(C#N)c3)c12 (centres undefined) 5.42%
Cc1cccc(NC(=S)N/N=C/c2cccc(O)c2)c1C 0%
O=c1cnc2ccccc2n1CC1CCCCC1 3.33%
COc1ccc(OC)c(C(=O)Cn2nnc(-c3ccc(N4CCOCC4)cc3)n2)c1 0%
COc1ccc(-c2oc3ccc(-c4cc(OC)c(OC)c(OC)c4)cc3c2C#Cc2ccccn2)cc1 6.46%
Cc1ccc(Nc2nc(-c3sc(C)nc3C)cs2)cc1 -14.7%
COc1ccccc1OCC(O)CN1C(=O)NC(C)(C)C1=O (centres undefined) 20%
CCOC(=O)c1ccc(N2CCOCC2)c(NC(=O)c2c(-c3ccccc3)noc2C)c1 0%
O=S(=O)(Nc1cc(Sc2cccc3cccnc23)c(O)c2ccccc12)c1ccccc1 26%
Cc1cc(C)cc(C(=O)NCC(=O)OCc2cc([N+](=O)[O-])cc3c2OCOC3)c1 1.61%
Cc1cc(N/N=C/c2ccccc2O)c2ccccc2n1 13.1%
COc1ccccc1NC(=S)NN=C(C)c1ccccn1 10.1%
Cc1cccc(NS(=O)(=O)c2ccc(-c3cnc(C4CC4)o3)cc2)c1 -6.25%
COc1cc2c(cc1OC)C(C)N(C(=O)Nc1cc(C)cc(C)c1)CC2 (centres undefined) 0%
Cc1cccc(C(=O)OCC(=O)NC(C)C2CC3CCC2C3)c1O (centres undefined) 6.97%
CCOC(=O)[C@H](CCc1ccccc1)N[C@@H](C)C(=O)N1[C@H](C(=O)O)C[C@@H]2CCC[C@@H]21 7.42%
CC(C)(C)c1ccc(/C=C/C(=O)c2ccc(NC3=NCCCS3)cc2)cc1 1.85%
Cc1ccc(-c2ccc3c(c2)O[C@@H](CN(C)C(=O)Nc2ccc(F)cc2)[C@@H](C)CN([C@H](C)CO)S3(=O)=O)cc1 19.4%
COc1ccc(-c2ccc3c(c2)[C@H]2[C@H](CCN2S(=O)(=O)c2ccc(OC)cc2)[C@@H](CO)N3C)cc1 -10.7%
CCCOCCOC(=O)c1[nH]c2c(c1C)C(=O)CC(c1cc(OC)ccc1OC)C2 (centres undefined) -8.41%
Cc1ccc(COc2ccccc2-c2cc(C(=O)N/N=C/c3cccnc3)[nH]n2)cc1 22.5%
O=S(=O)(Cc1ccccc1)N1CCCCN2[C@H](C1)[C@@H](c1ccc(C#Cc3ccccc3)cc1)[C@@H]2CO 3.12%
COc1ccc(OC)c(C2CC(c3ccccc3)=NN2C(=S)Nc2ccccc2)c1 (centres undefined) -13.3%
N#C[C@@H]1[C@H](c2ccc(-c3cccc(F)c3)cc2)[C@H](CO)N1C(=O)NC1CCCC1 3.57%
CCOCCOC(=O)COC(=O)c1ccccc1NC(=O)c1ccccc1 13.3%
COc1ccc2c3c([nH]c2c1)[C@H](CO)N(C(=O)C1CCOCC1)CC31CCN(Cc2cccc(F)c2)CC1 -6.46%
COc1cc(/C=C2/SC(=Nc3ccc(O)cc3)NC2=O)cc(OC)c1O -5.56%
O=C(N=Nc1c(O)[nH]c2ccc(Br)cc12)c1ccccc1-n1cccc1 -13.3%
CC(=O)c1c(C)[nH]c(C(=O)OCC(=O)NCc2ccc(Cl)cc2)c1C 18.7%
O=c1cc(-c2ccc(O)c(O)c2)oc2cc(O)cc(O)c12 0%
O=C(CN1CCN(S(=O)(=O)c2ccc(F)c(Cl)c2)CC1)N1CCc2ccccc2C1 -3.33%
CCOc1ccc(-c2cc(C(=O)N/N=C/c3ccc(O)cc3)c3ccccc3n2)cc1 7.69%
COc1ccc(S(=O)(=O)Nc2cc3c(cc2C(C)=O)OCO3)cc1 22.7%
Cc1ccc(-c2nn(-c3ccccc3)cc2C(=O)N2CCN(c3ccccn3)CC2)cc1 16.2%
C/C(=N\Nc1ncnc2sc(C)c(C)c12)c1ccccn1 -20%
COc1cc(C(=O)Nc2ccc3c(c2)CCN3C(C)=O)cc(OC)c1OC -6.67%
CC(C)(C)N(Cc1ccccc1)C(=O)c1cc2ccccc2o1 3.33%
COc1ccc(S(=O)(=O)NCc2ccccn2)cc1NC(=O)c1ccccc1F -10.7%
COc1ccccc1C1CC(=O)Nc2cc3c(cc21)OCCO3 (centres undefined) 9.58%
COCCNC(=O)NC12CC3(C)CC(C)(CC(C)(C3)C1)C2 3.33%
COc1ccc(C2=NOC(C(=O)NCc3ccccc3)C2)cc1 (centres undefined) -3.33%

Four compounds already listed, ordered by SMILES length, smallest number first.
Activity change, negative = more quenching (active), inactive:
COc1cc2c(cc1OC)C(C)N(C(=O)Nc1cc(C)cc(C)c1)CC2 (centres undefined) 0%
O=C(N=Nc1c(O)[nH]c2ccc(Br)cc12)c1ccccc1-n1cccc1 -13.3%
CCOC(=O)[C@H](CCc1ccccc1)N[C@@H](C)C(=O)N1[C@H](C(=O)O)C[C@@H]2CCC[C@@H]21 7.42%
C[C@@H]1CN([C@@H](C)CO)C(=O)c2cc(NC(=O)Nc3cccc4ccccc34)ccc2O[C@@H](C)CCCCO[C@@H]1CN(C)Cc1ccc2c(c1)OCO2 3.57%
